Results are given in words; binding and its absence hold for the method and conditions named. Binding seen in cells or lysates may run through a third protein. A yes stands for co-enrichment or nearness to the bait. Other partners may have been found. Where a sequence is shown, tags or fusion partners need not be part of it. Each block holds one molecule with its values, some of them ahead of it.
How the values were obtained:
[1] = molecular target: T1, GST-Smk-1 (Falafel Flfl^169-361aa, containing the Smk-1 domain) (Drosophila melanogaster) (UniProt Q9VFS5); assay: affinity purification with mass spectrometry; GST, GST-EVH1 or GST-Smk-1 on beads mixed with whole cell extract of wild-type syncytial embryos in EB buffer, 2 h at 4°C; on-beads trypsin digestion and mass spectrometry; only the target purified
T1 sequence: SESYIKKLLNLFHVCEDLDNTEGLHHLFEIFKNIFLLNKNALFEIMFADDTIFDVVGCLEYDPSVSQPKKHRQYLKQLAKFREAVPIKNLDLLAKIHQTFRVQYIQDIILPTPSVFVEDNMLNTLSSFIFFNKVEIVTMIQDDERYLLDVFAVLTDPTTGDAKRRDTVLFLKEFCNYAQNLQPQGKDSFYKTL

[2] = molecular target: T2, GST-EVH1 (Falafel Flfl^1-168aa, containing the EVH1 domain) (Drosophila melanogaster) (UniProt Q9VFS5); assay: as above
T2 sequence: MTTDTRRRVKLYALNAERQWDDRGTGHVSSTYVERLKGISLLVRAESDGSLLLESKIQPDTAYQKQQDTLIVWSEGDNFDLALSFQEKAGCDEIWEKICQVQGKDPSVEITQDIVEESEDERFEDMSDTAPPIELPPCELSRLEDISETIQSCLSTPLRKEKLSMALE

Molecule: heavy chain of the motor protein dynein, endogenous
binding [1]: binds

Molecule: Miranda, endogenous
binding [2]: binds

Molecule: gamma-tubulin, endogenous
binding [1]: binds

B1: Zwilch, endogenous (protein, UniProt Q9VA00 1-641)
chain: MSASANLANVYAELMRRCGESYTITYGAPPTYLVSMVGAAEAGKKIVLVFKEDRNGAVARLRTTPTRAAPKKEGSADLDLTGSPLKDDCLVDAIADLSIDLQLDHSNPWKLEEEYQRGIPVDKARSIVCSEFLQLAEGLGSVWFLCDGSDLGQTQLLQYEFNPTHFSRGILSYQGVRPAYLVTSQALVRHHGKTPDETLIENSYQVNPHMRLRCSWTSSAALPLLVNLNDCDVALNHTFRVGDCGPLTQDFMNQLRILVYIREDIVSYHTDVKQGVSRDPTYRCGSGIDMDELRESINQTMTDVSGLIGRYSISNAEFDIEDVVQRAKVRQLTDLTDKLWELLKCCHSYKDLKIAFSMLFQCAARCNIVNTPTNKNRLAKIITELANRRLAMPCLSGAEPLELLLEIGLEKLYKDYEFIYTESKMCSTNLLKDDSSGASMDDGSPQNLPQLRKSLHNAVRGDPTPGAGMRKTLLHHHGAVNSRSTKYAGSDDDAGFKNSHFDEHESTERISKLFQIHCTLEHLLMMHIHLNLANVYNDVCSELLKKPPKLVESIDDQLSDVMDIRLSAHYVRDHLDGKDPYSRHITMRSHNKFRELKTTFYFNSENICPPNLAQCFQCDDKEMVKERTYHSWIYHKIRSLK
binding [1]: binds

B2: CENP-C, endogenous (protein, UniProt Q9VHP9 1-1411)
chain: MSKPQNNDTLELDDILSQPVKDKERFAAFMMRKLAENKPAQNDNLFGNFKLDFDLDFEVPLIKKSQAKPKSKLPEVQPLGELVSKNSAATEKVNEPPVDQAPNENVPPRRSPTLSPNNRRSMRRSGNVPGSDKLRRHAIRRRSRSCGRQLLPEFEETVNLTRSISSPVNFLPEISSTPCTEKQKEEVAKNTTRVETDKPAEKPMELSQEPEPENPLQTKVTSPARNPILAAEIEQICKERQSSFHKNVLQLDYSGRAPYSRPPTPSSPSVAGLRRTYTMEKGPAPGQLLLSPSHRYDTPSKMPVVKAKRFNQELMVPDTPERQSHDPAWQSEPQPEFVVPETQPQDLGELVQTLSRSAISPIVVINTSNSNRSVRRDAVAMKSVPTSPVTALSSPPIAPSPRRSAAASPQKSIAQLPRVEENMDAIMTDDESDEHPSTVPLNLAPSGGNTTRQRRLRSSNRARATIESQESSMRLLNLHKSVNAKKSKPRKTAIPLNKAPSAPINGEQFARELTRMSNYEILDLRKRNSLNEIYPLNGHRNHRSEKLILEEEIQRELLRRNLMDEAEGLPKQQSSDDSNEDYIPVPPKTQSLRTKSNDRSQGRGRPRSTRRDLPMTTELVNYLGLSQTLETRRKSSKDGKRCLYTKGSSDHEDNDSLSPVKLPRLSKSIQIVPPPPVSLRYSQSLQNLPCSGKFDFDNVVMAAPPDFHDSVNSDAIEIAPPPPEYVVNTRGRSTSGRKSNKNDLVLPPPGYEGGQEEEHDERPSQPRCTAKELQQSTQNGRRAMENELVPPPIEYVEEENRNNEQSRRSTKNGNLVDRNTHNAVEYCEPPEPPEYDDSDHGQASILRRSGKKLQHSKQSVQKSNKEQIIAPSYENNEDYDSDEEPIYNEEYGKEESQNKNVTRRKSDKDEMASHTLECIEGPDPNWNSSCNKQNRNHQNASKSKENDKLANRSSKSQKLSNPRQNAVGTEKSVALSNRGEECTEKSSDVMESLRVNTPTPPIDQNSDDVPSRNPSPSRTLLSDDVPSTSRAALEFLQRSQNMSKSRPPDESSADVVFKKPLAPAPRAKSKKGKSEVDKLKLAKMPVEAEELNTTGIRRSKRGQVPLQMSWCHTMDPSKFNFMSGFIEPRSKNSKTKKGNLSKAKKASATKPKPTVEKNLPDNRGPLCSSTPRISEKLPGAIPHSESLGLSTLTWEETEVQAEAEKVPKKRGRPKKAVGGVQTDTEAEPEPEPEPMISSVAPLTSDQEEPDVPDEQAPYTEAALGPVVFSTPLRDEQEEASTKLMQWLRGVGDAPPSASMSDENASVSSANELIFCQVDGIDYAFYNTKEKAMLGYMRFKPYQKRSMKQAKVHPLKLLVQFGEFNVETLAVGEEKEVHSVLRVGDMIEIDRGTRYSIQNAIDKVSVLMCIRS
binding [2]: binds

Results, then the molecule that gave them:

binding [1]: binds
Molecule: Rod, endogenous

binding [2]: binds
Molecule: Incenp, endogenous

binding [1]: binds
B3: Zw10, endogenous (protein, UniProt Q9W4X9 1-721)
chain: MEEEAPRFNVLEEAFNGNGNGCANVEATQSAILKVLTRVNRFQMRVRKHIEDNYTEFLPNNTSPDIFLEESGSLNREIHDMLENLGSEGLDALDEANVKMAGNGRQLREILLGLGVSEHVLRIDELFQCVEEAKATKDYLVLLDLVGRLRAFIYGDDSVDGDAQVATPEVRRIFKALECYETIKVKYHVQAYMLQQSLQERFDRLVQLQCKSFPTSRCVTLQVSRDQTQLQDIVQALFQEPYNPARLCEFLLDNCIEPVIMRPVMADYSEEADGGTYVRLSLSYATKEPSSAHVRPNYKQVLENLRLLLHTLAGINCSVSRDQHVFGIIGDHVKDKMLKLLVDECLIPAVPESTEEYQTSTLCEDVAQLEQLLVDSFIINPEQDRALGQFVEKYETYYRNRMYRRVLETAREIIQRDLQDMVLVAPNNHSAEVANDPFLFPRCMISKSAQDFVKLMDRILRQPTDKLGDQEADPIAGVISIMLHTYINEVPKVHRKLLESIPQQAVLFHNNCMFFTHWVAQHANKGIESLAALAKTLQATGQQHFRVQVDYQSSILMGIMQEFEFESTHTLGSGPLKLVRQCLRQLELLKNVWANVLPETVYNATFCELINTFVAELIRRVFTLRDISAQMACELSDLIDVVLQRAPTLFREPNEVVQVLSWLKLQQLKAMLNASLMEITELWGDGVGPLTASYKSDEIKHLIRALFQDTDWRAKAITQIV
